Entries after “also recorded” stand apart in the source; their conditions may differ.

The series relates to fibrin clot formation in whole blood and fibrin sealant. Nature of the series: Fibrin polymerization (A405 nm) and thromboelastography of chemotherapies in whole blood/plasma and fibrin sealant. The settings on record: for Fibrin polymerization and viscoelastic clot properties: both whole blood and sealant formulations.

Take `CC[C@]1(O)C[C@H]2CN(CCc3c([nH]c4ccccc34)[C@@](C(=O)OC)(c3cc4c(cc3OC)N(C=O)[C@H]3[C@@](O)(C(=O)OC)[C@H](OC(C)=O)[C@]5(CC)C=CCN6CC[C@]43[C@@H]65)C2)C1` [Vincristine]: the “Fibrin formation (polymerization) time” value is listed as “impeded; also recorded: increases” and the “Maximal clot amplitude or modulus (overall clot strength)” value is on record as “did not affect; also recorded: without affecting”.

`COc1cc([C@@H]2c3cc4c(cc3[C@@H](O[C@@H]3O[C@@H]5CO[C@@H](C)O[C@H]5[C@H](O)[C@H]3O)[C@H]3COC(=O)[C@H]23)OCO4)cc(OC)c1O` [Etoposide]: the “Fibrin polymerization and viscoelastic clot properties” value is given as “unaffected; also recorded: not appreciably affected”.

Consider `N.N.O=C([O-])C1(C(=O)[O-])CCC1.[Pt+2]` [Carboplatin], for which the “Fibrin polymerization and viscoelastic clot properties” value was “unaffected; also recorded: not appreciably affected”.
